Source: paper PMC5406781
Results are given in words; binding and its absence hold for the method and conditions named. Some results given as binding are weak or reduced against the parent protein; the word gives no strength. Sequences can lack the tags named with a protein.

Amino acid sequences for entries named in this document (tags omitted).
UniProt Q1D2S1: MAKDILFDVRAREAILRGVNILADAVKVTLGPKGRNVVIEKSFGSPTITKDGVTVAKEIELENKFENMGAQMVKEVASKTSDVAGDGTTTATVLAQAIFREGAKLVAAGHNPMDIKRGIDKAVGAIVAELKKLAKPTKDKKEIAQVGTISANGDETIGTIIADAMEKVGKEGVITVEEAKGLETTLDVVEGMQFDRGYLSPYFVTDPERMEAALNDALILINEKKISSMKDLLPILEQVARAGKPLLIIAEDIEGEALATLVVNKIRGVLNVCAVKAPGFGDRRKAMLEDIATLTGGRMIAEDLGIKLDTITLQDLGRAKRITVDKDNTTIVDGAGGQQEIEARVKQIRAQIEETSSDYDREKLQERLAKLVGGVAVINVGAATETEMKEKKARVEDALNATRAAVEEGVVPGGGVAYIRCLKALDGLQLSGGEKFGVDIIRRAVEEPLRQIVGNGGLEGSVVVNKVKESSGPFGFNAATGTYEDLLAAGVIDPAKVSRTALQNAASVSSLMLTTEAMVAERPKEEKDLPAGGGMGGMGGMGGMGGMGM
UniProt Q1D3Y5: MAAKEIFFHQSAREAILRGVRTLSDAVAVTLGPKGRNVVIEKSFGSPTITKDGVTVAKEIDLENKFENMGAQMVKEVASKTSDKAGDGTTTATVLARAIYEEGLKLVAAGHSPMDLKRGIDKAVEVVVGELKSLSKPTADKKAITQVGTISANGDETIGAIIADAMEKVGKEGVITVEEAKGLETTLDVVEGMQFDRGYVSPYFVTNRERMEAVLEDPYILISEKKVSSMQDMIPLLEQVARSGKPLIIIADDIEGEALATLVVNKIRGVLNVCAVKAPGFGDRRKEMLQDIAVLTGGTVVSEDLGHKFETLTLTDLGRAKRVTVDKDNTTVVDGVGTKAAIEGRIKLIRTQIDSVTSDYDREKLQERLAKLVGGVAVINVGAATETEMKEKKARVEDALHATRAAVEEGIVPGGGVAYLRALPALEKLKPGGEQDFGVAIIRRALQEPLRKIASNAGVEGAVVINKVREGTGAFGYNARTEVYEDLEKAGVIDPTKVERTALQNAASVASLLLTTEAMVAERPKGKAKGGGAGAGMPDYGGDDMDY

Target: T1, His-tagged Myxococcus xanthus DK1622 GroES (Myxococcus xanthus DK1622) (UniProt Q1D2S2)
T1 sequence: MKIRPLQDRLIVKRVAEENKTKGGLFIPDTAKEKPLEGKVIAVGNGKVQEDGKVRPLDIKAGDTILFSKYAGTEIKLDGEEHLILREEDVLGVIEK
Test: pull-down; GroEL1 or GroEL2 (20 mg, excess) mixed with 1-4 mg His-tagged GroES for 3 h in 25 mM Tris-HCl pH 8.0, 300 mM NaCl, 2 mM dithiothreitol, 2 mM ATP; passed through nickel column, washed three times, eluted with 500 mM imidazole, SDS-PAGE; both purified

binding | Substance
binds | Myxococcus xanthus DK1622 GroEL1 (from UniProt Q1D2S1 1-549)
binds | Myxococcus xanthus DK1622 GroEL2 (from UniProt Q1D3Y5 1-547)
